Binding data for one molecule are collected here from patent US20200095339A1.

By UniProt entry, the sequences of proteins in these tests, tags left out. Residues count along the entry.
UniProt Q08722, residues 19-323: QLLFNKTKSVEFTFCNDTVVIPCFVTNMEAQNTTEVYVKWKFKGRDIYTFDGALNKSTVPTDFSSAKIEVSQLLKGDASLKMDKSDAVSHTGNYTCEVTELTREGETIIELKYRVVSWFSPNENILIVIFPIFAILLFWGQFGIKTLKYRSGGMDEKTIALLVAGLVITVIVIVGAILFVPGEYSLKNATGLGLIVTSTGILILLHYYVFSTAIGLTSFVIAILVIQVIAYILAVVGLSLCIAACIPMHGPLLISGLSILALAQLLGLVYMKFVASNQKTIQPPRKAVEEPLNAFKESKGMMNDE

Results are given in words; binding and its absence hold for the method and conditions named.

The test concerns the target human CD47 (human) (UniProt Q08722). As to the kind of experiment: FACS competition on Jurkat cells (CD20-CD47+) against 25 nM labelled SIRPα-Fc.

B1: Rituximab (antibody, V domains shown)
VH: QVQLQQPGAELVKPGASVKMSCKASGYTFTSYNMHWVKQTPGRGLEWIGAIYPGNGDTSYNQKFKGKATLTADKSSSTAYMQLSSLTSEDSAVYYCARSTYYGGDWYFNVWGAGTTVTVSA
VL: QIVLSQSPAILSASPGEKVTMTCRASSSVSYIHWFQQKPGSSPKPWIYATSNLASGVPVRFSGSGSGTSYSLTISRVEAEDAATYYCQQWTSNPPTFGGGTKLEIK
On to B1, for which the binding entry is reported as “no binding (tested: about 500 nM)”.
